Results: publication PMC11252000, “MFSD1 with its accessory subunit GLMP functions as a general dipeptide uniporter in lysosomes” (Nature Cell Biology, 2024)
Results are given in words; binding and its absence hold for the method and conditions named. For some assays here: Binding seen in cells or lysates may run through a third protein. Some binding calls cover weakened binding; strength is not graded here. Where a sequence is shown, tags or fusion partners need not be part of it.

What was measured:
[1] = target: T1, MFSD1-strep (mouse major facilitator superfamily domain containing 1 protein with N-terminal Twin-Strep-tag) (mouse) (UniProt Q9DC37); assay: pull-down; MFSD1-Nt-strep co-expressed with GLMP-Ct-His-GFP in Expi293F; detergent-extracted soluble fraction pulled down over Strep-Tactin beads; elution fraction blotted with antibodies against MFSD1 or GLMP; performed once
T1 sequence: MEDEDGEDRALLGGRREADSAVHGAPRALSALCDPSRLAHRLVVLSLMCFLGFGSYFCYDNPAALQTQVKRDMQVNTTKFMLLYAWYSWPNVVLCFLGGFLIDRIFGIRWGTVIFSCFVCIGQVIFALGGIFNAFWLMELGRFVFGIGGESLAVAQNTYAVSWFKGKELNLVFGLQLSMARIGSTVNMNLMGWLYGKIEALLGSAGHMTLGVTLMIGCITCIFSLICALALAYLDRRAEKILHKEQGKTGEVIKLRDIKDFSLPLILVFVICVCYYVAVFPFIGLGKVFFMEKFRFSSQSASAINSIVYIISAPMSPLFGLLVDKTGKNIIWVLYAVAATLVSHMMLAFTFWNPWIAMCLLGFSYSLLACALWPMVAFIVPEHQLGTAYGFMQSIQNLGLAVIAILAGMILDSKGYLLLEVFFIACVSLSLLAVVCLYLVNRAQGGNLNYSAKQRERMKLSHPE

[2] = target: T1, MFSD1-strep (mouse major facilitator superfamily domain containing 1 protein with N-terminal Twin-Strep-tag) (mouse); assay: SEC; co-purification from co-expressing Expi293F cells: Strep-TactinXT, then Ni-NTA, TEV cleavage, reverse Ni-NTA, then Superose 6 increase 3.2/300 in 20 mM HEPES pH 7.5, 150 mM NaCl, 0.03% DDM, 0.003% CHS; SDS-PAGE of the peak

binding [1]: binds | binding [2]: binds
B1: GLMP-Ct-His-GFP (mouse glycosylated lysosomal membrane protein with C-terminal TEV site, GFP and 8xHis tag) (protein, UniProt Q9JHJ3 36-404)
chain: EETRQVSMEVISGWPNPQNLLHIRAVGSNSTLHYVWSSLGPPAVVLVATNTTQSVLSVNWSLLLSPDPAGALMVLPKSSIQFSSALVFTRLLEFDSTNASEGAQPPGKPYPPYSLAKFSWNNITNSLDLANLSADFQGRPVDDPTGAFANGSLTFKVQAFSRSGRPAQPPRLLHTADVCQLEVALVGASPRGNHSLFGLEVATLGQGPDCPSVNERNSIDDEYAPAVFQLNQLLWGSSPSGFMQWRPVAFSEEERARESALPCQASTLHSTLASSLPHSPIVQAFFGSQNNFCAFNLTFGAPTGPGYWDQYYLCWSMLLGMGFPPVDIFSPLVLGIMAVALGAPGLMFLGGGLFLLLRHRRYSEYQSIN
modifications: N-glycosylated
